Test results taken from PMC11344719 (Amino Acids, 2024).

Assay: general procedure: Fmoc solid-phase peptide synthesis; 2-Chlorotrityl chloride resin; DIC/Oxyma
Conditions: whole synthesis, 215 nm
With H-K(hArg)[Dab]P[Agp]-OH the “final HPLC purity” value was 98.3%.
In the case of “H-K(hArg)[Dab]P[Phe(4-CH2NH2)]-OH (SMILES N=C(N)NCCCC[C@H](N)C(=O)NCCCC[C@H](N)C(=O)N[C@@H](CCN)C(=O)N1CCC[C@H]1C(=O)N[C@@H](Cc1ccc(CN)cc1)C(=O)O)”, the “final HPLC purity” value is reported as 98.0%.
In the case of H-K(hArg)[Dab]P[Agb]-OH, the “final HPLC purity” value is reported as 98.4%.
In the case of H-K(hArg)[Dap]P[Cit]-OH, the “final HPLC purity” value is reported as 98.6%.
For H-K(hArg)[Dap]P[hArg]-OH, the “final HPLC purity” value was 98.7%.
For H-K(hArg)[Dap]P[Agp]-OH, the “final HPLC purity” value was 98.7%.
With “H-K(hArg)[Dap]P[Phe(4-CH2NH2)]-OH (SMILES N=C(N)NCCCC[C@H](N)C(=O)NCCCC[C@H](N)C(=O)N[C@@H](CN)C(=O)N1CCC[C@H]1C(=O)N[C@@H](Cc1ccc(CN)cc1)C(=O)O)” the “final HPLC purity” value was 98.4%.
In the case of H-K(hArg)[Dab]P[hArg]-OH, the “final HPLC purity” value is reported as 99.0%.
For H-K(hArg)[Dab]P[Cit]-OH, the “final HPLC purity” value was 98.8%.
For H-K(hArg)[Dap]P[Agb]-OH, the “final HPLC purity” value was 99.1%.

Assay: general procedure: Fmoc solid-phase peptide synthesis; Fmoc-Arg(Pbf)-Wang resin; DIC/Oxyma
Conditions: whole synthesis, 215 nm
In the case of H-K(hArg)[Dab]PR-OH, the “final HPLC purity” value is reported as 99.3%.
With H-K(hArg)[Dap]PR-OH the “final HPLC purity” value was 99.4%.

Square brackets hold non-standard residues; d marks the D form. Phe(4-CH2NH2) = NCc1ccc(C[C@H](N)C(=O)O)cc1; hArg = N=C(N)NCCCC[C@H](N)C(=O)O; Cit = NC(=O)NCCC[C@H](N)C(=O)O; Agb = N=C(N)NCC[C@H](N)C(=O)O; Agp = N=C(N)NC[C@H](N)C(=O)O; Dab = NCC[C@H](N)C(=O)O; Dap = NC[C@H](N)C(=O)O
